Changes are numbered by the printed parent chain. No constants are given. Whether binding was seen depends on the method and setting. Some entries that bind do so weakly or less than the wild type. One block for each binder: values may come before it.
Tests used:
[1] = molecular target: Siglec-6 (antigen of Example 8) (human, UniProt O43699 27-347, limits assumed); experiment: BLI, monovalent Fab
Siglec-6 ECD Fc protein = molecular target: T1, Siglec-6 ECD Fc protein (human, UniProt O43699 27-347); experiment: domain-mapping ELISA; domain 2 binders bound full ECD-Fc and domains 1 and 2-Fc
T1 construct: also called Siglec-6 full ECD fused to a human Fc; not shown: human Fc

Chains of the proteins cited; added tags and fusions are not shown. Lines headed by an entry give the natural chain unless they say otherwise; changes in a name come on top.
UniProt O43699: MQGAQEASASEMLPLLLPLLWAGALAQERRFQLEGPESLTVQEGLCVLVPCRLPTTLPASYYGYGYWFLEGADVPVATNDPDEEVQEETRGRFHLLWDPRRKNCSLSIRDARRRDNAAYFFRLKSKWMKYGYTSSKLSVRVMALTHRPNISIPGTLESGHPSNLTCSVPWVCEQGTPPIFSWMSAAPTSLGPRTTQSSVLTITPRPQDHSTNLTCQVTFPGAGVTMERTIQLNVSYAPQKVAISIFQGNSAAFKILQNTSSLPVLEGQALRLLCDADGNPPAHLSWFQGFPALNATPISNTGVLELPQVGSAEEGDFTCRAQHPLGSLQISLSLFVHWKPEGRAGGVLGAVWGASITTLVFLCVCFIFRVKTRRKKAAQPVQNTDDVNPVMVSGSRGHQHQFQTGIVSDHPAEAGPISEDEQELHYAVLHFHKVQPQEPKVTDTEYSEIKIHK

[2] = molecular target: Siglec-6 domains 1 and 2 fused to a human Fc (human) (UniProt O43699); experiment: as above

binding [1]: binds
B1: AK19 Fab (Fab, V domains shown)
VH: QVQLQESGPGLVKPSETLSLTCTVSGFSLTSYGVSWIRQPPGKGLEWIGVIWHDGSTSYHSTLISRVTISRDTSKNQVSLKLSSVTAADTAVYYCASDGYSGTFAYWGQGTLVTVSS
VL: QIVVTQSPATLSLSPGERATLSCTASSSVSSSYLHWYQQKPGQAPRLLIYSTSILASGIPARFSGSGSGTDFTLTISSLQPEDFAVYYCHQYHRSPYTFGQGTKLEIK

binding [1]: binds
B2: AK20 Fab (Fab, V domains shown)
VH: B1 VH with S61P, T62S, I64K
VL: B1 VL

binding [1]: binds
B3: AK21 Fab (Fab, V domains shown)
VH: B1 VH with T30S, S58N, H60N, S61P, T62S, I64K
VL: B1 VL

binding (Siglec-6 ECD Fc protein): binds
binding [2]: binds
B4: AK11 (antibody, V domains shown)
VH: EVMLVESGGGLVKPGGSLKLSCAASGFSFSTYVMSWVRQTPEKRLEWVASISGGGSNTYYPDSVKGRFTISRDNAKNTLYLQMSSLRSEDTALYYCARREVVVYWYFDVWGTGTTVTVSS
VL: DIQMTQSPASLSVSVGETVTITCRASENIYSNLAWYQQKQGKSPQLLVFSAKNLADGVPSRFGGSGSGTQYSLKINSLQSEDFGTYYCQHFWGTPLTFGAGTKLELK
notes: also called anti-Siglec-6 mAb AK11
